# ± gives the standard deviation of the averaged measurements. The list shows a part of the results. Values are raw readings; no control value is given beside them.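 In this assay, LPS from bacteria induces microglia-mediated neuronal death in a neuron–microglia–astrocyte co-culture, a model of inflammatory neurodegeneration. Compounds were compared against same-plate DMSO vehicle wells, with the SYK inhibitor BAY61-3606 as reference neuroprotective control.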
# Columns and labels:
# Settings in all cases: 1 µM, treatment time 3 days
# [1] = system: rat primary cerebellar neuron-glia coculture; assay: microglia count (IB4+) per image field (cells per field); higher = more microglia
# [2] = system: rat primary cerebellar neuron-glia coculture; assay: live neuron count (NeuO+) per image field (cells per field); higher = more surviving neurons
# [3] = system: rat primary cerebellar neuron-glia coculture; assay: median microglial FormFactor (circularity) per image (dimensionless (0-1)); higher = rounder, more ameboid microglia
SMILES,microglia count ([1]; LPS 0 ng/mL),microglia count ([1]; LPS 100 ng/mL),live neuron count ([2]; LPS 0 ng/mL),live neuron count ([2]; LPS 100 ng/mL),median microglial FormFactor ([3]; LPS 0 ng/mL),median microglial FormFactor ([3]; LPS 100 ng/mL)
O=C(Nc1nnn[nH]1)NC1CCCCC1,154 ± 31,455 ± 100,2690 ± 390,298 ± 280,0.527 ± 0.074,0.686 ± 0.067
CNC(=O)c1ccccc1Nc1cc(Nc2ccc(N3CCOCC3)cc2OC)ncc1C(F)(F)F,223 ± 58,401 ± 51,1540 ± 350,403 ± 270,0.465 ± 0.079,0.666 ± 0.091
CCOC(=O)c1ccc(NC(=O)CSc2nc3c(c(=O)n2-c2ccccc2)SCC3)cc1,168 ± 57,404 ± 110,2650 ± 520,288 ± 170,0.519 ± 0.089,0.681 ± 0.058
CCn1c2ccccc2c2cc(NC(=O)N3CCOCC3)ccc21,207 ± 38,389 ± 99,829 ± 440,450 ± 340,0.523 ± 0.056,0.739 ± 0.071
O=C(Nc1cccc2c(=O)cc(-c3nnn[nH]3)oc12)c1ccc(OCCCCc2ccccc2)cc1,164 ± 43,424 ± 98,2650 ± 390,355 ± 540,0.508 ± 0.055,0.703 ± 0.073
CN(C)CCNC(=O)c1cccn2c(=O)c3cc4ccccc4cc3nc12,169 ± 30,429 ± 89,2640 ± 660,234 ± 130,0.512 ± 0.045,0.701 ± 0.04
CC(C)(C)c1cc(C(=O)Cn2c(=N)n(CCN3CCOCC3)c3ccccc32)cc(C(C)(C)C)c1O,203 ± 85,420 ± 51,2620 ± 470,446 ± 420,0.542 ± 0.074,0.646 ± 0.086
CC[C@H]1[C@@H](O)[C@@H]2[C@H](CC[C@]3(C)[C@@H]([C@H](C)CCC(=O)O)CC[C@@H]23)[C@@]2(C)CC[C@@H](O)C[C@@H]12,187 ± 96,418 ± 69,2700 ± 340,299 ± 400,0.564 ± 0.11,0.666 ± 0.063
CC1(C)Cc2c(c(N3CCOCC3)nc3sc4c(NCCN5CCOCC5)ncnc4c23)CO1,174 ± 62,344 ± 36,2610 ± 410,153 ± 160,0.517 ± 0.057,0.797 ± 0.041
CC(=O)N1C(=O)C(=O)c2ccccc21,210 ± 170,442 ± 100,2710 ± 470,392 ± 310,0.53 ± 0.093,0.664 ± 0.037
Cc1[nH]c(/C=C2\C(=O)Nc3ccc(S(=O)(=O)N(C)c4cccc(Cl)c4)cc32)c(C)c1C(=O)N1CCN(C)CC1,180 ± 89,422 ± 77,2780 ± 410,385 ± 410,0.534 ± 0.063,0.702 ± 0.054
COc1ccc(COC(=O)C2=C(C)NC(=O)NC2c2ccccc2)cc1 (configuration not stated),165 ± 39,389 ± 62,2210 ± 400,629 ± 590,0.571 ± 0.083,0.676 ± 0.11
Cc1cc(NC(=O)NCCN2CCC(O)(Cc3ccccc3)CC2)c2ccccc2n1,156 ± 32,438 ± 100,2620 ± 540,280 ± 310,0.557 ± 0.095,0.66 ± 0.061
Cc1cccc(Nc2nc(N[C@@H]3CCCC[C@@H]3N)ncc2C(N)=O)c1,42.9 ± 9.5,389 ± 67,2780 ± 530,2030 ± 600,0.655 ± 0.078,0.521 ± 0.12
O=c1cc(-c2cccc3c2Sc2ccccc2S3)oc(N2CCOCC2)c1,313 ± 550,472 ± 72,1840 ± 750,463 ± 310,0.57 ± 0.073,0.704 ± 0.037
COc1ccc(NC(=O)c2ccc(-c3ccc(-c4nnc(C)o4)cc3C)cc2)cc1N1CCN(C)CC1,308 ± 130,482 ± 150,2450 ± 380,776 ± 700,0.463 ± 0.075,0.636 ± 0.12

SMILES,microglia count ([1]; LPS 0 ng/mL),microglia count ([1]; LPS 100 ng/mL),live neuron count ([2]; LPS 0 ng/mL),live neuron count ([2]; LPS 100 ng/mL),median microglial FormFactor ([3]; LPS 0 ng/mL),median microglial FormFactor ([3]; LPS 100 ng/mL)
COc1ccc(N2CCOCC2)c2sc(NC(=O)N3CCC(C)(O)CC3)nc12,183 ± 99,440 ± 83,2480 ± 750,543 ± 540,0.513 ± 0.084,0.636 ± 0.08
O=C(O)Cc1ccccc1Nc1c(Cl)cccc1Cl,161 ± 28,556 ± 74,2670 ± 470,602 ± 460,0.543 ± 0.075,0.454 ± 0.059
O=C(NOC[C@H](O)CO)c1ccc(F)c(F)c1Nc1ccc(I)cc1F,20.5 ± 10,117 ± 34,2780 ± 260,1450 ± 970,0.566 ± 0.074,0.699 ± 0.044
CCc1nc(N)nc(N)c1-c1ccc(Cl)cc1,130 ± 31,556 ± 60,2480 ± 640,2440 ± 510,0.754 ± 0.077,0.518 ± 0.056
CC(=O)Nc1ccc(O)cc1,167 ± 33,472 ± 72,2700 ± 510,462 ± 600,0.549 ± 0.091,0.614 ± 0.11
COc1ccc(-c2c(C)nn3c(NCCN4CCOCC4)cc(C)nc23)cc1OC,188 ± 78,437 ± 140,2680 ± 450,644 ± 910,0.52 ± 0.07,0.691 ± 0.11
CCN(CC)CCOC(=O)C1(c2ccccc2)CCCC1,175 ± 51,412 ± 70,2570 ± 570,338 ± 290,0.516 ± 0.072,0.679 ± 0.056
CCCc1cc(C)[nH]c(=O)c1CNC(=O)c1cc(-c2ccnc(N3CCN(C)CC3)c2)cc2c1cnn2C(C)C,195 ± 45,388 ± 87,1870 ± 340,761 ± 370,0.515 ± 0.082,0.73 ± 0.095
CC1(C)Oc2ncnc(N)c2N=C1c1ccc(C23CCC(CC(=O)O)(CC2)CC3)cc1,182 ± 99,420 ± 100,2610 ± 460,562 ± 460,0.52 ± 0.096,0.679 ± 0.077
CCOc1ccc2oc(C(=O)NC(CCSC)c3nc4ccccc4[nH]3)c(C)c2c1 (configuration not stated),161 ± 33,434 ± 96,2590 ± 450,532 ± 650,0.556 ± 0.097,0.664 ± 0.069
Oc1cc2c(cc1O)C(c1ccccc1)CNCC2 (configuration not stated),162 ± 30,416 ± 52,2710 ± 660,446 ± 480,0.559 ± 0.066,0.696 ± 0.079
Cc1nc(-c2cnn(C)c2-c2ccc(C(F)(F)F)cn2)c2c(N3CCC3)ncnn12,199 ± 90,429 ± 86,2590 ± 430,231 ± 240,0.576 ± 0.08,0.677 ± 0.071
NC[C@H](O)c1ccc(O)c(O)c1,118 ± 31,405 ± 37,2660 ± 450,2400 ± 480,0.609 ± 0.065,0.635 ± 0.035
CN(C(=O)CCCOc1ccc2[nH]c(=O)ccc2c1)C1CCCCC1,140 ± 33,454 ± 99,2700 ± 560,513 ± 870,0.571 ± 0.094,0.68 ± 0.093
Cc1ccsc1C(=CCCN1CCC[C@@H](C(=O)O)C1)c1sccc1C,159 ± 40,444 ± 100,2730 ± 450,885 ± 680,0.571 ± 0.09,0.616 ± 0.094
CO/C(O)=C1\C(C)=NC(C)=C(C(=O)O[C@H]2CCN(Cc3ccccc3)C2)[C@H]1c1cccc([N+](=O)[O-])c1,270 ± 52,390 ± 81,903 ± 420,220 ± 130,0.424 ± 0.056,0.701 ± 0.057

# In the list so far, these contain a thiophene ring, fused or not:
SMILES,microglia count ([1]; LPS 0 ng/mL),microglia count ([1]; LPS 100 ng/mL),live neuron count ([2]; LPS 0 ng/mL),live neuron count ([2]; LPS 100 ng/mL),median microglial FormFactor ([3]; LPS 0 ng/mL),median microglial FormFactor ([3]; LPS 100 ng/mL)
CC1(C)Cc2c(c(N3CCOCC3)nc3sc4c(NCCN5CCOCC5)ncnc4c23)CO1,174 ± 62,344 ± 36,2610 ± 410,153 ± 160,0.517 ± 0.057,0.797 ± 0.041
Cc1ccsc1C(=CCCN1CCC[C@@H](C(=O)O)C1)c1sccc1C,159 ± 40,444 ± 100,2730 ± 450,885 ± 680,0.571 ± 0.09,0.616 ± 0.094

# From the supplement of paper PMC10973195
